Laboratory results reported in article PMC3954888.
Results are given in words; binding and its absence hold for the method and conditions named. For part of these data: In cells and extracts the contact can be indirect. Some entries that bind do so weakly or less than the wild type.

Sequences of proteins named here, by UniProt entry; tags and fusion partners are left off. A change or cut given only in a name is not applied to a line headed by its entry. A line that says so, or that is headed by a name, gives the form on record, which may keep a tag or linker. Residues count along the entry.
UniProt Q13489: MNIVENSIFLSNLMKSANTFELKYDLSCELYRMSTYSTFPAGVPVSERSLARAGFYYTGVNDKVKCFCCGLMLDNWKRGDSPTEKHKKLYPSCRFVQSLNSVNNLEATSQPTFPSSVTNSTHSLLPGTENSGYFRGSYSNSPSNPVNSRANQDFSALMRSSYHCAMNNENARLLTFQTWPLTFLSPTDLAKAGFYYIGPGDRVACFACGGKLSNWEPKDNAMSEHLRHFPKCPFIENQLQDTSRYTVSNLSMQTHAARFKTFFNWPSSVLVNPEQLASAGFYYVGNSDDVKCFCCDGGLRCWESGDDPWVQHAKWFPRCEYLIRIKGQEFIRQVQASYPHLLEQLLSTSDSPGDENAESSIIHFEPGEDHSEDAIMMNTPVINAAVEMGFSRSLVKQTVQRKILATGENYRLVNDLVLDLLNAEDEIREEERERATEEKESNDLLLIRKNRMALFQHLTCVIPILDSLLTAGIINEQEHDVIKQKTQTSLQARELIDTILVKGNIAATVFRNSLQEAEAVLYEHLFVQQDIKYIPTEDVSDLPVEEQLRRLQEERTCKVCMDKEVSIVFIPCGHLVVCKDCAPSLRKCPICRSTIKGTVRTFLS
UniProt Q13490: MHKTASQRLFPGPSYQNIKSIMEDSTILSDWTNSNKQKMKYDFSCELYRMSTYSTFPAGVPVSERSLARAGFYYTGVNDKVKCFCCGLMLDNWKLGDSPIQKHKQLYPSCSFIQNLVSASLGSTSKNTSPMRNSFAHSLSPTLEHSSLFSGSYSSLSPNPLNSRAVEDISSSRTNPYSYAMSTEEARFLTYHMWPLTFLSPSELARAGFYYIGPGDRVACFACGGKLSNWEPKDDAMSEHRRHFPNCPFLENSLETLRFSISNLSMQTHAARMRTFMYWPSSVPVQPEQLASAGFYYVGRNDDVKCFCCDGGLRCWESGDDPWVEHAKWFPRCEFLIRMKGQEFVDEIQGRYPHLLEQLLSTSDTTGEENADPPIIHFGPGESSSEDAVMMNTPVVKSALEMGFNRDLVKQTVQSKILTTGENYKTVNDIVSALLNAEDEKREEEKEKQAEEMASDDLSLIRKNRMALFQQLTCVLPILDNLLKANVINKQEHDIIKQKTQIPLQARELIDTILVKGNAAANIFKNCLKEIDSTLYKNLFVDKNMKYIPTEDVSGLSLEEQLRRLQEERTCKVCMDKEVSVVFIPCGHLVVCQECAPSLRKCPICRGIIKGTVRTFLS
HA-tagged cIAP-1 RING mutant (His588 mutated to Ala) (Q13490, form named): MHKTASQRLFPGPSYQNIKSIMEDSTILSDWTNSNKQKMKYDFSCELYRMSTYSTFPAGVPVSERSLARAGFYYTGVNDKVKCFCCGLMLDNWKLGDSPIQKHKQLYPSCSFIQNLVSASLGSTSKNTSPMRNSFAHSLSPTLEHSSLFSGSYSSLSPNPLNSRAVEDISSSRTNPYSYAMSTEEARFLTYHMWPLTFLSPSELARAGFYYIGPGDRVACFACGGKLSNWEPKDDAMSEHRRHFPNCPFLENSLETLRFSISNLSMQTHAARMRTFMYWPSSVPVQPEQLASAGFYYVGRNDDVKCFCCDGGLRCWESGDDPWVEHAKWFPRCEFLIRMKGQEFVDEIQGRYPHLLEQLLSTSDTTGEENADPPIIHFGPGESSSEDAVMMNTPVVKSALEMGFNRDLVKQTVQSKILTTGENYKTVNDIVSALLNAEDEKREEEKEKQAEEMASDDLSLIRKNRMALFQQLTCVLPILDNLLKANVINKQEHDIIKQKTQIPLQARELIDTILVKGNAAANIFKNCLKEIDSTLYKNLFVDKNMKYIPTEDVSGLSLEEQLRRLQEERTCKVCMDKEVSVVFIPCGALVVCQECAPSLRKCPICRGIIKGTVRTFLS
UniProt Q86VP3: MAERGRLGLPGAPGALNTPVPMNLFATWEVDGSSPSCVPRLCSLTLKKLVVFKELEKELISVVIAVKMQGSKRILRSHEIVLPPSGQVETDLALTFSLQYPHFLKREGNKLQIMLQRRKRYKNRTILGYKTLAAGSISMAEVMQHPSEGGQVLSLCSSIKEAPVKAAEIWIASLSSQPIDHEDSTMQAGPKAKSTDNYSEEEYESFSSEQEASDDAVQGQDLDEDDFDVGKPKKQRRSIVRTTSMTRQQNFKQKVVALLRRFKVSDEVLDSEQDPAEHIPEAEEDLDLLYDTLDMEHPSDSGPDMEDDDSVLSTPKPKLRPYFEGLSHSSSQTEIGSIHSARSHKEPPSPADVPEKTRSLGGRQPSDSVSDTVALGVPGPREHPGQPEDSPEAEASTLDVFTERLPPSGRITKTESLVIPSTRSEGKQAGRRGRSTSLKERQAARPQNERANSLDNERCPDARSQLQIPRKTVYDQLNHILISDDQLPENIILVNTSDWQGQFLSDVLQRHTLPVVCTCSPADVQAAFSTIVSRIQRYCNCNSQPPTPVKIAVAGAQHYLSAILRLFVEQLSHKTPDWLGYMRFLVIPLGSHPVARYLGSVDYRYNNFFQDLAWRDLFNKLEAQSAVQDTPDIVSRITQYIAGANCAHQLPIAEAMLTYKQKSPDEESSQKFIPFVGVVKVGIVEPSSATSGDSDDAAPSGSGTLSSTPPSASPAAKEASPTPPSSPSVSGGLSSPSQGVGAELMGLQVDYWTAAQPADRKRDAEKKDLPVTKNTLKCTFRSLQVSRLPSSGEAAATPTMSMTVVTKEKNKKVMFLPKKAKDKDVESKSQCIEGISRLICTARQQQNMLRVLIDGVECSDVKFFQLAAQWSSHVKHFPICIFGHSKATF
GST-PACS-2FBR(38-202): residues 38-202 of Q86VP3

Columns and labels:
[1] = molecular target: endogenous cIAP-2 (human (endogenous in HuH-7)) (UniProt Q13489); assay: co-IP; HuH-7 cells transfected with S-peptide/SBP-PACS-2, MG132 (5 µM) 4 h; 1.5 mg lysate with 5 µg anti-cIAP-2 antisera 2 h at 4°C, then protein A agarose overnight; immunoblot for S-peptide
[2] = molecular target: HA-tagged cIAP-1 RING mutant (His588 mutated to Ala) (UniProt Q13490); assay: co-IP; HuH-7 cells co-transfected with S-peptide/SBP-PACS-2 and HA-cIAP-1H588A, MG132 (5 µM) 4 h; lysate (50 mM HEPES pH 7.2, 120 mM NaCl, 1 mM EDTA, 0.1% NP-40, 10% glycerol) on anti-HA affinity gel overnight at 4°C; immunoblot for S-peptide
GST-PACS-2FBR(38-202) = GST-PACS-2FBR(38-202) (UniProt Q86VP3); assay: pull-down; ~200 ng GST-PACS-2FBR(38-202) or GST with 500 ng cIAP-1 and/or cIAP-2, with or without 500 ng His-TRAF2, 30 min at 4°C in 20 µl of 20 mM Tris pH 7.9, 150 mM NaCl, 0.1 mM EDTA, 0.1% NP-40; GST-agarose beads; immunoblot; both purified

Substance | binding [1] | binding [2] | binding (GST-PACS-2FBR(38-202))
S-peptide/streptavidin-binding peptide-double tagged PACS-2 (phosphofurin acidic cluster sorting protein 2) (from UniProt Q86VP3-1 1-889) | binds | binds | 
recombinant cIAP-2 (from UniProt Q13489 1-604) (enzyme) |  |  | binds
